# Data from PubChem BioAssay AID330 (DTP/NCI, 2004).
# The list does not hold the whole screen: its compounds were picked by chemical class. Not every dose and run of a compound is shown. T/C is the treated group as % of the vehicle group. Where survival is the endpoint, this PubChem deposit counts one and a half times the control or more as active, and values a quarter to a half above the control carry no call in these data; other NCI protocols may use other cut-offs. Some entries show no survivor count and are marked so; the dose need not have been tolerated. Schedule codes are those of the source, read here as Q, the interval in days (D) or hours (H), X, the number of doses. Some entries were tested several times; the results are listed from low to high.
# Test system: P388 leukemia ip, CD2F1 mice, survival T/C
# Assay: NCI In Vivo Anticancer Drug Screen. Data for tumor model P388 Leukemia (intraperitoneal) in CD2F1 (CDF1) mice
# Settings: T/C endpoint: median survival time, higher T/C = longer survival
# [1] = dose: 25.0 mg/kg/injection, schedule: Q04DX003 (ip), vehicle: saline with Tween-80
# [2] = dose: 6.25 mg/kg/injection, schedule: Q04DX003 (ip), vehicle: saline with Tween-80
structure (smiles),measurement,setting,value
Nc1cc(N)cc(N(CCCl)CCCl)c1,T/C,"dose: 4.4 mg/kg/injection, schedule: Q04DX003 (ip), vehicle: water",185 % of control [survivor count not shown]
same,T/C,"dose: 5.0 mg/kg/injection, schedule: Q04DX003 (ip), vehicle: water",116 [survivor count not shown] and 166 % of control [survivor count not shown]
same,T/C,"dose: 6.6 mg/kg/injection, schedule: Q04DX003 (ip), vehicle: water",208 % of control [survivor count not shown]
same,T/C,"dose: 10.0 mg/kg/injection, schedule: Q04DX003 (ip), vehicle: water","98 [survivor count not shown], 172 [survivor count not shown], 215 % of control [survivor count not shown]"
same,T/C,"dose: 20.0 mg/kg/injection, schedule: Q04DX003 (ip), vehicle: water",116 [survivor count not shown] and 127 % of control [survivor count not shown]
same,T/C,"dose: 40.0 mg/kg/injection, schedule: Q04DX003 (ip), vehicle: water",91 % of control [survivor count not shown]
O=C(O)CCCCCCCCCCN(CCCl)CCCl,T/C,"dose: 1.56 mg/kg/injection, schedule: Q04DX003 (ip), vehicle: suspension in saline",107 % of control [survivor count not shown]
same,T/C,"dose: 3.13 mg/kg/injection, schedule: Q04DX003 (ip), vehicle: suspension in saline",132 % of control [survivor count not shown]
same,T/C,"dose: 6.25 mg/kg/injection, schedule: Q04DX003 (ip), vehicle: saline",134 % of control [survivor count not shown]
same,T/C,"dose: 6.25 mg/kg/injection, schedule: Q04DX003 (ip), vehicle: suspension in saline",128 % of control [survivor count not shown]
same,T/C,"dose: 12.5 mg/kg/injection, schedule: Q04DX003 (ip), vehicle: saline",168 % of control [survivor count not shown]
same,T/C,"dose: 12.5 mg/kg/injection, schedule: Q04DX003 (ip), vehicle: suspension in saline",153 % of control [survivor count not shown]
O=C(O)CCOc1ccccc1N(CCCl)CCCl,T/C,"dose: 3.13 mg/kg/injection, schedule: Q01DX009 (ip), vehicle: saline sonified",142 % of control [survivor count not shown]
same,T/C,"dose: 6.25 mg/kg/injection, schedule: Q01DX009 (ip), vehicle: saline sonified",157 % of control [survivor count not shown]
same,T/C,"dose: 8.0 mg/kg/injection, schedule: Q01DX009 (ip), vehicle: saline sonified",195 % of control [survivor count not shown]
same,T/C,"dose: 12.0 mg/kg/injection, schedule: Q01DX009 (ip), vehicle: saline sonified",165 % of control [survivor count not shown]
same,T/C,"dose: 12.5 mg/kg/injection, schedule: Q01DX009 (ip), vehicle: saline sonified",161 % of control [survivor count not shown]
same,T/C,"dose: 18.0 mg/kg/injection, schedule: Q01DX009 (ip), vehicle: saline sonified",175 % of control [survivor count not shown]
same,T/C,[1],104 % of control [survivor count not shown]
ClCCN(CCCl)Cc1nc2cc(Cl)c(Cl)cc2[nH]1,T/C,"dose: 3.13 mg/kg/injection, schedule: Q04DX003 (ip), vehicle: saline with Tween-80",109 % of control [survivor count not shown]
same,T/C,[2],118 % of control [survivor count not shown]
same,T/C,"dose: 12.5 mg/kg/injection, schedule: Q01DX009 (ip), vehicle: saline with Tween-80",136 % of control [survivor count not shown]
same,T/C,"dose: 12.5 mg/kg/injection, schedule: Q04DX003 (ip), vehicle: saline with Tween-80",118 [survivor count not shown] and 150 % of control [survivor count not shown]
same,T/C,"dose: 25.0 mg/kg/injection, schedule: Q01DX009 (ip), vehicle: saline with Tween-80",145 % of control [survivor count not shown]
same,T/C,[1],154 % of control [survivor count not shown]
same,T/C,"dose: 33.0 mg/kg/injection, schedule: Q04DX003 (ip), vehicle: saline with Tween-80",140 % of control [survivor count not shown]
same,T/C,"dose: 50.0 mg/kg/injection, schedule: Q01DX009 (ip), vehicle: saline with Tween-80",163 % of control [survivor count not shown]
same,T/C,"dose: 50.0 mg/kg/injection, schedule: Q04DX003 (ip), vehicle: saline with Tween-80",150 [survivor count not shown] and 172 % of control [survivor count not shown]
same,T/C,"dose: 75.0 mg/kg/injection, schedule: Q04DX003 (ip), vehicle: saline with Tween-80",163 % of control [survivor count not shown]
BrCCN(CCBr)c1ccccc1,T/C,"dose: 1.56 mg/kg/injection, schedule: Q01DX009 (ip), vehicle: Klucel (hydroxypropylcellulose) (HPC)",146 % of control [survivor count not shown]
same,T/C,"dose: 3.13 mg/kg/injection, schedule: Q01DX009 (ip), vehicle: Klucel (hydroxypropylcellulose) (HPC)",172 % of control [survivor count not shown]
same,T/C,"dose: 6.25 mg/kg/injection, schedule: Q01DX009 (ip), vehicle: Klucel (hydroxypropylcellulose) (HPC)",133 [survivor count not shown] and 219 % of control [survivor count not shown]
same,T/C,"dose: 12.5 mg/kg/injection, schedule: Q01DX009 (ip), vehicle: Klucel (hydroxypropylcellulose) (HPC)",135 [survivor count not shown] and 169 % of control [survivor count not shown]
O=C(O)C(Cc1ccccc1)N(CCCl)CCCl (stereo unspecified),T/C,"dose: 0.38 mg/kg/injection, schedule: Q01DX009 (ip), vehicle: saline with Tween-80",124 % of control [survivor count not shown]
same,T/C,"dose: 0.75 mg/kg/injection, schedule: Q01DX009 (ip), vehicle: saline with Tween-80",132 % of control [survivor count not shown]
same,T/C,"dose: 1.5 mg/kg/injection, schedule: Q01DX009 (ip), vehicle: saline with Tween-80",143 [survivor count not shown] and 157 % of control [survivor count not shown]
same,T/C,"dose: 3.0 mg/kg/injection, schedule: Q01DX009 (ip), vehicle: saline with Tween-80",143 % of control [survivor count not shown]
same,T/C,"dose: 4.0 mg/kg/injection, schedule: Q04DX003 (ip), vehicle: saline with Tween-80",104 % of control [survivor count not shown]
same,T/C,"dose: 6.0 mg/kg/injection, schedule: Q01DX009 (ip), vehicle: saline with Tween-80",178 % of control [survivor count not shown]
same,T/C,[2],163 % of control [survivor count not shown]
O=C1/C(=C/N(CCCl)CCCl)CSc2ccccc21,T/C,"dose: 100.0 mg/kg/injection, schedule: Q04DX003 (ip), vehicle: Klucel (hydroxypropylcellulose) (HPC)",106 % of control [survivor count not shown]
same,T/C,"dose: 200.0 mg/kg/injection, schedule: Q04DX003 (ip), vehicle: Klucel (hydroxypropylcellulose) (HPC)",100 % of control [survivor count not shown]
same,T/C,"dose: 400.0 mg/kg/injection, schedule: Q04DX003 (ip), vehicle: Klucel (hydroxypropylcellulose) (HPC)",99 % of control [survivor count not shown]
O=S=NN(CCCl)CCCl,T/C,"dose: 8.5 mg/kg/injection, schedule: Q04DX003 (ip), vehicle: saline",140 % of control [survivor count not shown]
same,T/C,"dose: 13.0 mg/kg/injection, schedule: Q04DX003 (ip), vehicle: saline",160 % of control [survivor count not shown]
same,T/C,"dose: 20.0 mg/kg/injection, schedule: Q04DX003 (ip), vehicle: saline",275 % of control [survivor count not shown]
